Results are given in words; binding and its absence hold for the method and conditions named. In cells and extracts the contact can be indirect. Some binding calls cover weakened binding; strength is not graded here.
How the values were obtained:
[1] = target: endogenous Smad3 (NRK-49F cells) (rat (endogenous in NRK-49F)) (UniProt P84025); test: co-IP; NRK-49F cells (CON sgRNA or S100A4 sgRNA; pEGFP or GFP-S100A4) treated with TGF-β1 (2 ng/mL) for 1 h; extracts precipitated with anti-Smad3 or IgG, blotted with anti-Smad4
[2] = target: FLAG-tagged Smad3 (UniProt P84022); test: co-IP; HEK293T co-transfected with GFP-S100A4 and FLAG-Smad3, lysed 48 h after transfection in IP lysis buffer (25 mM Tris-HCl pH 7.4, 150 mM NaCl, 1% NP-40, 5% glycerol); precipitated with anti-Flag, blotted with anti-GFP
[3] = target: GFP-tagged S100A4 (UniProt P26447); test: co-IP; reciprocal: HEK293T transfected with GFP-S100A4 and FLAG-Smad3; lysates precipitated with anti-GFP, blotted with the indicated antibodies
[4] = target: endogenous Smad3 (NRK-49F cells) (rat (endogenous in NRK-49F)) (UniProt P84025); test: co-IP; non-transfected NRK-49F lysate (25 mM Tris-HCl pH 7.4, 150 mM NaCl, 1% NP-40, 5% glycerol); precipitated with anti-Smad3 overnight at 4 °C, rabbit normal IgG as control; blotted for S100A4

Amino acid sequences for entries named in this document (tags omitted).
UniProt P84025: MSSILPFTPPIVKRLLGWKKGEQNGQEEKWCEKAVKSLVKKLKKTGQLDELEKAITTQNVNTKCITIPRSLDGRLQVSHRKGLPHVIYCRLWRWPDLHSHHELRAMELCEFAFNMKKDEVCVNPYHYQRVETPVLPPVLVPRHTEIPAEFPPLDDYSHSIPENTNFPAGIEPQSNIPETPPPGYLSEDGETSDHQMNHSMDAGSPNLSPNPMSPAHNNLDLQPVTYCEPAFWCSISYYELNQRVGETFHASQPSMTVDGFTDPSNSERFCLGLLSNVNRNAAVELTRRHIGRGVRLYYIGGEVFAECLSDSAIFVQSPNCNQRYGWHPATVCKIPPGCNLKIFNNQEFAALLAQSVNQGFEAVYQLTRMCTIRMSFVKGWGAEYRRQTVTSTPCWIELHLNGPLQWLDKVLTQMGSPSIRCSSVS
UniProt P84022: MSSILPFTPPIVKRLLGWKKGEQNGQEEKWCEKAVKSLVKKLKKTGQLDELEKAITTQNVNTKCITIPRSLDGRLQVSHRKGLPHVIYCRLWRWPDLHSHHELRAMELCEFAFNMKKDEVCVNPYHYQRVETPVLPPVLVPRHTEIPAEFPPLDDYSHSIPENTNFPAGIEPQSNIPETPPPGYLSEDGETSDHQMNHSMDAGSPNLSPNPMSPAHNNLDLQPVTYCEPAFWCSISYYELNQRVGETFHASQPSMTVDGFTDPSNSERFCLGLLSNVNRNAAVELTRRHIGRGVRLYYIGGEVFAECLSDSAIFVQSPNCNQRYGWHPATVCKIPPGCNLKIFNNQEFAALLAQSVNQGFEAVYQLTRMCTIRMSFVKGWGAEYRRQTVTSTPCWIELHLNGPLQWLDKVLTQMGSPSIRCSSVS
UniProt P26447: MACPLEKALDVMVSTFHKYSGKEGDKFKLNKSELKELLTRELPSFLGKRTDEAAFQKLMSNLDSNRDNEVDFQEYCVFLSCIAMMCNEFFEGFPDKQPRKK
UniProt O70437: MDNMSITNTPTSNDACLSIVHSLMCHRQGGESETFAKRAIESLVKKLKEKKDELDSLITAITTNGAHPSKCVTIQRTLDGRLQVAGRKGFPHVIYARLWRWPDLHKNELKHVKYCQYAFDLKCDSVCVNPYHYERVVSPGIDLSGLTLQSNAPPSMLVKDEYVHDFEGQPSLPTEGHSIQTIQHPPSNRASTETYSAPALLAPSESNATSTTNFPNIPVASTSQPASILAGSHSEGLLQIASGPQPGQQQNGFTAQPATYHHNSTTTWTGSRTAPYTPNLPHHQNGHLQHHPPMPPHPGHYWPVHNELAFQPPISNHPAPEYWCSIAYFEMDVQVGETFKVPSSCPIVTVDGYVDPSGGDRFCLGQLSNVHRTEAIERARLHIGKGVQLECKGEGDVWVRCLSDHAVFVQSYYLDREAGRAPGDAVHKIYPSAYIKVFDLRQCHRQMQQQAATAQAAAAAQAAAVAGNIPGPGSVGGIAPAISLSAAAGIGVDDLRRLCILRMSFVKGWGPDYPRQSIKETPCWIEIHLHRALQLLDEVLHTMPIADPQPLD
UniProt P05942: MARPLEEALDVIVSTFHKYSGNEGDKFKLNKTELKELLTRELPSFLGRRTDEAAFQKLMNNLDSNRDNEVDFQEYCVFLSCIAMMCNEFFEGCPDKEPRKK

endogenous Smad4 (NRK-49F cells) (from UniProt O70437 1-552)
binding [1]: binds

GFP-tagged S100A4 (from UniProt P26447 1-101)
binding [2]: binds

FLAG-tagged Smad3 (from UniProt P84022 1-425)
binding [3]: binds

endogenous S100A4 (NRK-49F cells) (from UniProt P05942 1-101)
binding [4]: binds
